This is an account of results in ChEMBL document CHEMBL1132135, “Potent, orally absorbed glucagon receptor antagonists” (Bioorg Med Chem Lett, 1999).

The chains behind the UniProt entries cited, without tags or fusion partners.
UniProt P47871, whole entry: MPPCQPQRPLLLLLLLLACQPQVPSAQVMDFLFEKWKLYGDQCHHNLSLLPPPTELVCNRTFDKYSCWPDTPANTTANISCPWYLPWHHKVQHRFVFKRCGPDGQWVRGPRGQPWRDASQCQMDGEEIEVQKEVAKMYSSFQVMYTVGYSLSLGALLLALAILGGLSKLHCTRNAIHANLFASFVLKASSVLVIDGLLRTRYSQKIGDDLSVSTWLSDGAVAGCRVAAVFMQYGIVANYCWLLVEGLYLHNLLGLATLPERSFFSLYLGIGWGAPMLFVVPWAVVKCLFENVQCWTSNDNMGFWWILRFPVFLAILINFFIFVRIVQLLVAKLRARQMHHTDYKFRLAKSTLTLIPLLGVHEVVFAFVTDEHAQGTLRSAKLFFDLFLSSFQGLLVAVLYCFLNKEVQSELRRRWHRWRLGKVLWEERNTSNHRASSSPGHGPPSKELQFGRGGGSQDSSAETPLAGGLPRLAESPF

This test deals with Glucagon receptor (Homo sapiens, UniProt P47871). As to the kind of experiment: biochemical. The class given is cell-based, CHO.

`CSc1ccc(-c2nc(-c3ccc(F)cc3)c(-c3ccncc3)[nH]2)cc1` yielded an IC50 of 490 nM.
